# In PubChem BioAssay AID651640 (Broad Institute, 2012):
# “And” between values parts separate entries of the source, which are not always exact repeats. Equal values may be shown once. Hit rate of the full screen: of about 350,000 compounds, about 6,000 (1.7%) were called active. Inconclusive means that the source gave no clear call. Such entries were picked first, then a sample of the others. Rule as the data show it: active = CPE inhibition above about 20% (passing the limit was not always enough); inconclusive = no clear call, values can overlap the other calls; tested in BHK-21 cells. Where a structure was tested more than once in an assay, its records may differ in their call.
# Assay: protection of cells from dengue 2 killing – plate reader, single concentration, primary screen (AID 651640);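 also: 0% = median of neutral control wells and 100% = median of positive control wells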
# Conditions: DENV2-infected cells, cytopathic effect rescue, at 9.99 µM, active compounds read high
row,Structure (SMILES),CPE inhibition
1,C[C@H](CO)N1C[C@H](C)[C@H](CN(C)S(=O)(=O)c2cccs2)Oc2ccc(NS(=O)(=O)c3ccc(F)cc3)cc2C1=O,inactive: -7.3%
2,COc1ccc(NC(=S)NCc2cccnc2)cc1,inconclusive: 26%
3,O=C(Nc1nccs1)C1CC=CCC1 (stereo unspecified),inconclusive: 28.2%
4,C[C@@H]1CN([C@@H](C)CO)C(=O)Cc2cc(NC(=O)Nc3ccc(F)cc3)ccc2O[C@@H]1CN(C)C(=O)Nc1cccc2ccccc12,active: 41%
5,S=C(Nc1ccc(Oc2ccccc2)cc1)NC1CCCC1,inactive: -2.28%
6,O=c1[nH]ncc(N2CCN(Cc3ccccc3)CC2)c1Cl,inactive: -2.12%
7,O=S1(=O)CC(N2CCCC2)CN1Cc1cn(Cc2ccc(Cl)cc2)nn1 (stereo unspecified),inconclusive: 32.8%
8,C[C@@H]1CCCCO[C@H](CN(C)C(=O)Nc2cccc3ccccc23)[C@H](C)CN([C@H](C)CO)C(=O)c2cc(NS(=O)(=O)c3ccc(Cl)cc3)ccc2O1,active: 58%
9,COc1ccc(S(=O)(=O)N(C)C[C@@H]2Oc3ccc(NS(=O)(=O)c4ccc(Cl)cc4)cc3CC(=O)N([C@H](C)CO)C[C@H]2C)cc1,inconclusive: 21.9%
10,CCCc1nc(SC2CCCC2)c2c(=O)n(C)c(=O)n(C)c2n1,inactive: 9.62%
11,CN(C)C(=O)c1cccc(-c2ccccc2[C@H]2[C@@H](C#N)N(C(=O)C3CCCC3)[C@H]2CO)c1,inconclusive: 29.7%
12,CCN1C(=O)[C@H]2[C@@H](c3ccc(-c4ccccc4)c(OC)c3)N[C@@](Cc3ccccc3)(C(=O)OC)[C@H]2C1=O,inconclusive: 58%
13,COC(=O)c1ccc(NC(=S)Nc2cccc(C)n2)cc1,inconclusive: 20.9%
14,CCCCc1nn(-c2cc(Cl)ccc2OC)c2c1C(=O)CC(C)(C)C2,active: 42.9%
15,Cc1cccc(C(=O)OC(C)C(=O)Nc2ccc(S(=O)(=O)N3CCCC3)cc2)c1O (stereo unspecified),inconclusive: 26.1%
16,CC(=O)c1c(C)[nH]c(C(=O)Nc2ccc(Cl)cc2F)c1C,inactive: -6.54%
17,C[C@@H]1CN([C@H](C)CO)S(=O)(=O)c2ccc(/C=C/c3ccccc3)cc2O[C@@H]1CN(C)Cc1ccc(C(=O)O)cc1,inconclusive: 28%
18,O=C(c1cccc(F)c1)N1CC[C@@H]2[C@H]1c1cc(-c3ccccc3)ccc1N[C@@H]2CO,active: 45.6%
19,C[C@H]1CN([C@@H](C)CO)C(=O)c2cc(NC(=O)C3CCCCC3)ccc2O[C@H]1CN(C)Cc1ccncc1,inconclusive: 23.4%
20,CCC(=O)[C@@]1(C)[C@H](C)C[C@H]2[C@@H]3CCC4=CC(=O)C=C[C@]4(C)[C@H]3[C@@H](O)C[C@@]21C,inconclusive: 33%
21,COc1ccc(NC(=O)Nc2cccc3c2O[C@@H](CN(C)Cc2ccccc2)[C@@H](C)CN([C@H](C)CO)C3=O)cc1,inactive: -1.33%
22,C=CCSc1nnc2c(n1)-c1cccc3cccc-2c13,inconclusive: 74.3%
23,O=C(CNc1ccccc1OC(F)F)N1CCc2ccccc21,inactive: 1.07%

# Among those listed so far, these contain two or more sulfur atoms.
row,Structure (SMILES),CPE inhibition
1,C[C@H](CO)N1C[C@H](C)[C@H](CN(C)S(=O)(=O)c2cccs2)Oc2ccc(NS(=O)(=O)c3ccc(F)cc3)cc2C1=O,inactive: -7.3%
9,COc1ccc(S(=O)(=O)N(C)C[C@@H]2Oc3ccc(NS(=O)(=O)c4ccc(Cl)cc4)cc3CC(=O)N([C@H](C)CO)C[C@H]2C)cc1,inconclusive: 21.9%

# Additional structures:

row,Structure (SMILES),CPE inhibition
1,C[C@H](CO)N1C[C@H](C)[C@H](CN(C)S(=O)(=O)c2ccc(F)cc2)Oc2ncc(C#Cc3ccc(C(F)(F)F)cc3)cc2C1=O,inconclusive: 4.33%
2,CC(C)N(Cc1ccccc1)C(=O)COC(=O)c1cnc(Cl)c(Cl)c1,active: 67.2%
3,COc1ccc(N(CC(=O)NC2CCCC2)C(=O)Cn2nnc(-c3ccc(F)cc3)n2)cc1,inconclusive: 22.6%
4,COc1ccc(NC(=O)Nc2ccc3c(c2)C(=O)N([C@H](C)CO)C[C@H](C)[C@@H](CN(C)S(C)(=O)=O)O3)cc1,active: 25.6%
5,CN1c2ccc(-c3cccc(F)c3)cc2[C@H]2[C@H](CCN2C(=O)c2ccccc2F)[C@H]1CO,active: 69.4%
6,C[C@H]1CN([C@@H](C)CO)C(=O)CCCn2cc(nn2)CO[C@@H]1CN(C)Cc1cccnc1,inactive: -1.17%
7,COc1cccc(N(CC(=O)N2CCOCC2)S(C)(=O)=O)c1,inconclusive: 20.8%
8,O=[N+]([O-])c1cccnc1N1CCN(Cc2ccc3c(c2)OCO3)CC1,active: 34.3%
9,COc1ccc2c3c(n(C)c2c1)[C@H](CO)N(C)CC31CN(S(=O)(=O)c2cccc(F)c2)C1,inactive: -4.85%
10,O=C(C1=C[C@@H](c2ccc3c(c2)OCO3)C[C@@H](OCc2ccc(CO)cc2)O1)N1CCOCC1,inconclusive: 33.2%
11,O=C(O)C(Cc1ccc(Cl)cc1)Sc1nc2ccccc2[nH]1 (stereo unspecified),inconclusive: 34%
12,Cc1cccc(S(=O)(=O)N(C)C[C@H]2OCc3cnnn3CCCC(=O)N([C@@H](C)CO)C[C@@H]2C)c1,inactive: -3.41%
13,COc1ccc(S(=O)(=O)N(C)[C@H]2C[C@H]3c4cc(-c5ccccc5)ccc4CCN3C(=O)[C@H]2[C@H](C)O)cc1,inactive: -5.21%
14,COc1cccc(NC(=O)N[C@@H]2C=C[C@@H](CC(=O)Nc3ccccc3)O[C@H]2CO)c1,inactive: -0.0775%
15,CO[C@H]1CN(C)C(=O)c2cc(NC(=O)Nc3c(C)noc3C)ccc2OC[C@H](C)N(CC2CC2)C[C@@H]1C,inactive: 1.73%
16,CC1C(C)N(C(=O)CCl)c2ccccc2N1C(=O)CCl (stereo unspecified),inconclusive: 53.8%
17,COC/C=C/C1=CC2=CC(=O)C(C)(OC(=O)c3cnc4ccccc4n3)C(=O)C2=CN1c1ccccc1 (stereo unspecified),inconclusive: 53.5%
18,CCN(CC)C(=O)CSc1nc2c(sc(=S)n2-c2ccccc2OC)c(=O)n1-c1ccccc1,inactive: 0.245%
19,CN1C(=O)c2cc(NC(=O)c3cccc(F)c3)ccc2OC[C@@H]2O[C@@H](CC(=O)NC3CCC3)CC[C@@H]21,inactive: -2.69% and inactive: -5.43%
20,CC(C)C(=O)Nc1ccc2c(c1)C(=O)N(C)[C@@H]1CC[C@H](CC(=O)NCc3cccc(F)c3)O[C@H]1CO2,inactive: 7.25%
21,O=C(Cc1ccccc1)c1c[nH]c(C(=O)O)c1,inconclusive: 25.1%
22,COc1cc(OC)cc(-c2c(C#Cc3ccsc3)c3cc(Br)ccc3n2C)c1,inactive: -7.86%
23,COc1ccc(S(=O)(=O)N(C)C[C@H]2Oc3ccc(NC(=O)C4CCCCC4)cc3CC(=O)N([C@H](C)CO)C[C@H]2C)cc1,active: 22%
